{"source": "PubChem BioAssay AID1159578 (Peter MacCallum Cancer Centre, 2015)", "purpose": "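Genome-wide hunt for genes controlling movement of lymphatic endothelial cells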 (primary screen)", "system": "human lymphatic endothelial cells", "reagent": "siRNA pool against human genes, 40 nM", "timing": "48 h after transfection", "measured": "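Cells stained with dye and imaged after a scratch; covered wound area and nuclei counted, duplicates averaged, migration set against mock wells and turned into a robust z-score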", "reading the numbers": "migration robust z-score: higher = faster migration into the scratch; nuclei per well: higher = more cells in the well", "hit rule": "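Migration changed when robust z exceeds 2 or falls below -2 and mean nuclei number is at least 3300; otherwise not called changed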", "meaning of the calls": "active = migration changed; inactive = no migration change, or too few cells", "note": "The deposit covers about 18,000 reagents; this is an unselected part. Over the whole deposit, about 1,030 (5.7%) were called active. 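Inactive calls also include pools with fewer than 3300 nuclei, whose migration was not assessed.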 Raw values are not corrected between plates. Further read-outs or replicates are left out here."}
{"gene symbol": "CACTIN (cactin, spliceosome C complex subunit)", "migration robust z-score": -0.8, "migration class with cell-count check": "migration z between -2 and 2; enough cells", "nuclei per well, duplicate mean": 6075, "call": "inactive"}
{"gene symbol": "LINS1 (lines homolog 1)", "migration robust z-score": 0.09, "migration class with cell-count check": "migration z between -2 and 2; enough cells", "nuclei per well, duplicate mean": 6267, "call": "inactive"}
{"gene symbol": "CYBRD1 (cytochrome b reductase 1)", "migration robust z-score": -0.83, "migration class with cell-count check": "migration z between -2 and 2; enough cells", "nuclei per well, duplicate mean": 5474, "call": "inactive"}
{"gene symbol": "GSTA1 (glutathione S-transferase alpha 1)", "migration robust z-score": 0.02, "migration class with cell-count check": "migration z between -2 and 2; enough cells", "nuclei per well, duplicate mean": 7192, "call": "inactive"}
{"gene symbol": "VAT1 (vesicle amine transport 1)", "migration robust z-score": 0.24, "migration class with cell-count check": "migration z between -2 and 2; enough cells", "nuclei per well, duplicate mean": 5594, "call": "inactive"}
{"gene symbol": "CAPZA2 (capping actin protein of muscle Z-line subunit alpha 2)", "migration robust z-score": 1.49, "migration class with cell-count check": "migration z between -2 and 2; enough cells", "nuclei per well, duplicate mean": 5798, "call": "inactive"}
{"gene symbol": "CGB2 (chorionic gonadotropin subunit beta 2)", "migration robust z-score": -1.44, "migration class with cell-count check": "migration z between -2 and 2; enough cells", "nuclei per well, duplicate mean": 6098, "call": "inactive"}
{"gene symbol": "CT47A4 (cancer/testis antigen family 47 member A4)", "migration robust z-score": -3.12, "migration class with cell-count check": "migration z below -2; enough cells", "nuclei per well, duplicate mean": 4940, "call": "active"}
{"gene symbol": "SERTM1 (serine rich and transmembrane domain containing 1)", "migration robust z-score": 0.69, "migration class with cell-count check": "migration z between -2 and 2; enough cells", "nuclei per well, duplicate mean": 7202, "call": "inactive"}
{"gene symbol": "SERPINB6 (serpin family B member 6)", "migration robust z-score": -0.47, "migration class with cell-count check": "migration z between -2 and 2; enough cells", "nuclei per well, duplicate mean": 5767, "call": "inactive"}
{"gene symbol": "DAND5 (DAN domain BMP antagonist family member 5)", "migration robust z-score": -0.52, "migration class with cell-count check": "migration z between -2 and 2; enough cells", "nuclei per well, duplicate mean": 6410, "call": "inactive"}
{"gene symbol": "MRM1 (mitochondrial rRNA methyltransferase 1)", "migration robust z-score": -0.18, "migration class with cell-count check": "migration z between -2 and 2; enough cells", "nuclei per well, duplicate mean": 5336, "call": "inactive"}
{"gene symbol": "CSPP1 (centrosome and spindle pole associated protein 1)", "migration robust z-score": 0.32, "migration class with cell-count check": "migration z between -2 and 2; enough cells", "nuclei per well, duplicate mean": 5476, "call": "inactive"}
{"gene symbol": "NCK2 (NCK adaptor protein 2)", "migration robust z-score": -1.92, "migration class with cell-count check": "migration z between -2 and 2; enough cells", "nuclei per well, duplicate mean": 4002, "call": "inactive"}
{"gene symbol": "TUBAL3 (tubulin alpha like 3)", "migration robust z-score": -1.33, "migration class with cell-count check": "migration z between -2 and 2; enough cells", "nuclei per well, duplicate mean": 3882, "call": "inactive"}
{"gene symbol": "SLC37A4", "migration robust z-score": 0.02, "migration class with cell-count check": "migration z between -2 and 2; enough cells", "nuclei per well, duplicate mean": 6084, "call": "inactive"}
{"gene symbol": "AKAP5 (A-kinase anchoring protein 5)", "migration robust z-score": 0.36, "migration class with cell-count check": "migration z between -2 and 2; enough cells", "nuclei per well, duplicate mean": 6366, "call": "inactive"}
{"gene symbol": "TUBA3E (tubulin alpha 3e)", "migration robust z-score": -0.82, "migration class with cell-count check": "migration z between -2 and 2; enough cells", "nuclei per well, duplicate mean": 4114, "call": "inactive"}
{"gene symbol": "LIN54 (lin-54 DREAM MuvB core complex component)", "migration robust z-score": 0.62, "migration class with cell-count check": "migration z between -2 and 2; enough cells", "nuclei per well, duplicate mean": 3706, "call": "inactive"}
{"gene symbol": "PSMD12 (proteasome 26S subunit, non-ATPase 12)", "migration robust z-score": -1.07, "migration class with cell-count check": "migration z between -2 and 2; enough cells", "nuclei per well, duplicate mean": 5772, "call": "inactive"}
{"gene symbol": "MSLNL (mesothelin like)", "migration robust z-score": -0.17, "migration class with cell-count check": "migration z between -2 and 2; enough cells", "nuclei per well, duplicate mean": 4908, "call": "inactive"}

Taken from above.
Under “call”, CGB2 (chorionic gonadotropin subunit beta 2) has inactive
VAT1 (vesicle amine transport 1), migration class with cell-count check → migration z between -2 and 2; enough cells
Value for TUBA3E (tubulin alpha 3e) in “nuclei per well, duplicate mean”: 4114
